Literature values in patent publication US20180214412A1, “IMMEDIATE RELEASE CANNABINOID FORMULATIONS” (CannTab Therapeutics Limited, priority 2017, published 2018).

Details: in vivo

**Q.** With `COC(=O)C1=C(C)NC(C)=C(C(=O)OC)C1c1ccccc1[N+](=O)[O-]` [Nifedipine, nifedipine] as the compound, how does the biological half life read?
**A.** 2.5 h
